# Data as given in PubChem BioAssay AID1508600 (Functional Genomics Laboratory (NCATS/FGL), 2020).
# Among all 53,000 sequences or so, about 3,700 (7%) were called active.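 The calls were made as follows: active = gene knockdowns whose robust z-score for IL-1 alpha signal is at least 2 or at most -2, so actives lie on both sides; inactive = the rest.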 The list shows a part of the results.
# Assay: Components of the Cytosolic LPS Sensing Pathway: Gene Identification via Genome-wide siRNA Screen;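 also: robust z of the log signal after scaling to non-targeting control siRNA wells of the plate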
# Conditions: RAW264.7 macrophages, IL-1a HTRF, actives lie on both sides, screened at 100 nM (by protocol), cells primed 5 h with Pam3CSK4 first
# Summary of the method: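 Three distinct siRNAs per gene were tested singly at 100 nM in RAW264.7 macrophages. Following Pam3CSK4 priming and 24 hour LipidA transfection, IL-1a secretion was read by HTRF.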
row,Sequence,z-score
1,UACAACCCACCUUUUAAGUTT against Tusc1,inactive: 0.863
2,CCAGGUAAACAUUGCUACUTT against Mpdz,inactive: 0.551
3,GCUUCUCAAAUAAACAGCATT against Hexa,inactive: -1.06
4,GGUCCAACGAUAUGUUGACTT against Cyp2c67,inactive: 1.27
5,CCCGUCUUACUGCUCUUCUTT against Slc22a13,inactive: 0.198
6,GGACUUCAGAGUGGACAUUTT against Sec16b,inactive: -0.19
7,CCUCAUCAAAGUCCGUCUATT against Slc25a45,inactive: -0.117
8,CCAUCACCUCUUUGGAACUTT against Zfp579,inactive: -0.669
9,GCGAAACAGACACUUCGGUTT against Dlgap5,inactive: 0.595
10,GGGAAUACAUUCAUUAUCATT against Sema3c,inactive: -0.773
11,CCGUCUAUACCUUAAUUGATT against Ifnlr1,inactive: -0.0183
12,GGCAUUUCCGACAGAGAUGTT against Cpne4,inactive: -1.28
13,CCUAAUCAGUGUUAAGUACTT against Atrnl1,inactive: 0.656
14,GGCAUCUGUUAUUGAAGUGTT against Vit,inactive: 1.12
15,GCACUCGGCCAUAAAGUGUTT against Phkb,inactive: 0.879
16,GGAGGAUGCUGAAAUUAUUTT against Atp6v0a1,inactive: -0.833
17,GGGACCAAGGGAUAAACCATT against Atxn7l1,inactive: -1.04
18,GGACUGUACUAUGGCUCUCTT against Nt5m,inactive: 0.135
19,GCCUGAUGGUGCUAAGACUTT against Olfr854,inactive: 1.48
20,GCGUAUUUGAGAAUUUAGATT against Atrx,inactive: -0.659
21,UGUUCCUAGGUCAGCUACUTT against Olfr1200,inactive: -1.54
22,CCAAUCCUGUGAGAGCAUGTT against Tectb,inactive: 0.244

row,Sequence,z-score
1,GGGACCUCUACAGAGAUGUTT against Zfp113,inactive: 1.58
2,GGAGGGUUUGCUUGAUGUUTT against Nyap1,inactive: -0.00391
3,GGCUGAAUGUCGCUUAGAGTT against 9030612E09Rik,inactive: -0.875
4,GCUAGAGGUGACUGAUGUCTT against Tti1,inactive: -1.26
5,GGAACACUAUCUCACCUUUTT against Psd2,inactive: -0.0667
6,GCCAUGAAACUUCAUGCUGTT against Spink4,inactive: -0.0377
7,GGAGCUGAAUGACCGCUUUTT against Vim,inactive: -0.0679
8,CUUUCUUGCCGUAUUUUACTT against Olfr1287,inactive: -0.569
9,CUCCCUGGCAUUAAUCCGUTT against Tepp,inactive: 0.0788
10,GCAUGAAUAUUCCUCGUGATT against LOC433501,inactive: -0.442
11,GGCUUUGUAUCCUUAUGUATT against Setd1b,inactive: -0.736
12,GCAGGGAUCUGGAUUUAAUTT against Arf5,active: 3.37
13,GGUAAAACAUUGUUUAGACTT against Cdk12,inactive: -1.1
14,GGAACAAAAGGUGAUCGUGTT against Col25a1,inactive: -1.74
15,GGUAUGUCGCCAUCUGCUUTT against Olfr1342,inactive: 0.733
16,GGCCAUAACACAAAUGUAGTT against Prpf4,inactive: 0.554
17,GGACUACCUGUGUAUGCUCTT against Dcaf12l1,inactive: 1.3
18,GGUAGUUCAUCUCAGGCCUTT against Muc13,inactive: 0.524
19,GGGAUUCUAGACCAAUCCATT against Fam114a1,inactive: -0.538
20,GGAAAUGACGAGAAGAAAGTT against Mapt,inactive: -0.0597
21,GGAGAAACAUCAAUUGCACTT against Thbs2,inactive: -0.0207
22,GGGUCUCAUUGACCACCAGTT against Plec,inactive: -0.0874

# 2 successive records from above, quoted:
row,Sequence,z-score
8,CUUUCUUGCCGUAUUUUACTT against Olfr1287,inactive: -0.569
9,CUCCCUGGCAUUAAUCCGUTT against Tepp,inactive: 0.0788

# Carrying on.

row,Sequence,z-score
1,GCCAUCCUGAUAUCAGGCATT against Tas2r138,inactive: -0.991
2,CGUCUGCCACCUAUUUGAGTT against Olfr122,inactive: 0.165
3,GGGAGCUAUGGAUUUGCUGTT against Tcea2,inactive: -0.0877
4,GGCAGUAGUGUUAACGGUGTT against Chrnb2,inactive: 0.422
5,CCGUGAUCCCUUUUCACCATT against 6030445D17Rik,active: -2.26
6,GGAAUCUAGCUGAGAAAAUTT against Lepr,inactive: -0.62
7,GGAAGAGCUGGACUUCUUCTT against Hoxb2,inactive: 1.71
8,GGCCUCCUGAUUUGAUUGUTT against Crct1,inactive: 0.971
9,GGUGAAACAGCGAAUAGGUTT against Zfp428,inactive: -0.168
10,GGCAUCAAGCACAAGAAAATT against Sys1,inactive: -1.16
11,GGCCUGACCUUCAACAAGATT against Gab2,inactive: 0.24
12,GGGAUCCAUCCUUAUUGUUTT against Ybx2,inactive: -0.101
13,GACCAUAGGGCAGAUGAAGTT against Svs3b,inactive: -1.4
14,GGAAAUCCAGAAGCGUGUGTT against Gtpbp3,inactive: -0.436
15,GGACUUGGAAGAAGUAUAATT against Rbl2,inactive: -0.713
16,GGUCCUGGAAGAUCCUUCUTT against Slc30a6,inactive: 0.337
17,CCAGAUCAUCGUGCAGAAUTT against E4f1,inactive: 0.557
18,GGAUUAAGUUGUCAUCAUUTT against Cdk14,inactive: 0.874
19,CGUAUCCAAAAGUGAUUUCTT against Tigd5,inactive: 1.27
20,GGGUAUCCCGCUUUUCUACTT against Slc6a18,inactive: 0.841
21,GGACAAAUUGGUUGUGCUATT against Olfr457,inactive: -1.46
22,CCGAAUGAUCAUCACACUGTT against Vmn1r32,inactive: 0.155

# Given with bars between the fields: part of the list above.
row | Sequence | z-score
2 | CCAGGUAAACAUUGCUACUTT against Mpdz | inactive: 0.551
3 | GCUUCUCAAAUAAACAGCATT against Hexa | inactive: -1.06

# (next part)

row,Sequence,z-score
1,GGCCUUGAAGCAGAAGUCUTT against Gfra1,inactive: -1.21
2,CGGUCACAGAGGAAGAAUATT against Ank2,inactive: 0.236
3,GCGCAUUCUCCAUUAAACATT against Cyp4f16,inactive: 0.429
4,GGAGUCUUGUCCAUGUAAUTT against Zfp52,inactive: 0.28
5,GGCCUUUGCAUGCAAUAGUTT against Zfp119b,inactive: 0.0596
6,GGGUCUAGAGACAUGUGGCTT against Saa3,inactive: 0.198
7,GGACCACAUAGCUUUUGAGTT against Zswim6,inactive: 0.458
8,GCAGUCAGGAGUUGUUCAGTT against Btg1,inactive: 0.648
9,CGAUUCUUUACUAAAUUGGTT against Chek1,inactive: -0.313
10,CGGACAUCAUUGUUUUAAGTT against Rbbp7,inactive: -0.891
11,GCGCAGAGCAAAAUCGAAUTT against Gja1,inactive: 1.09
12,GGGAGUGGCUCCUCAGAAATT against AW549877,inactive: -1.98
13,GGAAAAUCAGAUUUCAGAGTT against Lrrn1,inactive: -1.35
14,GCAAAUGACCUUCUCACACTT against Gga2,inactive: 1.44
15,CCAAGUAAUGGCUGAUCGCTT against Tmem74,inactive: -0.802
16,GGCUUUCAGAAGUUUAUCATT against Lgr5,inactive: -0.217
17,GGACAUCAUGGACCUGAAGTT against Bmerb1,inactive: -0.582
18,GAGGGCUCUACAGUUUUUATT against Atp5g3,inactive: 0.952
19,GCUGCUUUCUUUGGAGGACTT against Olfr484,active: 2.27
20,GGAAAUGAAUAUGAACCUUTT against Tmem67,inactive: 0.536
21,GGUGAUUGACAGAUUCUGATT against Nr4a1,inactive: -0.613
22,GGUUCAGAUCCACAGCCAGTT against Asic2,active: -2.12

row,Sequence,z-score
1,GGGCCUUGUACUUCACUUGTT against Med23,inactive: 0.545
2,GCCAACCUGAAUAGACCUCTT against Glis3,inactive: 1.67
3,GGAGCAUACAUCUAAGAUUTT against Zfp185,inactive: -0.0921
4,CGGUAAUCAUUGCUGUUCUTT against H2-K1,inactive: 1.05
5,GGAGAUACCUGUCAAACAATT against Npm2,inactive: -0.971
6,GCUCUGUUCACACGUUUAATT against Arhgap10,inactive: -0.898
7,GGCUGUAAAUAUCUGCCAUTT against Meaf6,inactive: -1.41
8,CCACAUGAACAAUUUGGGCTT against Rpl9,inactive: 0.0288
9,GGAAGUUACUGUUGAGUAGTT against Olfr114,inactive: 0.209
10,GGUGUUUACACCCAGCACCTT against Ankfn1,inactive: 1.27
11,GGUUCAUCUUUCAAAUCUATT against Kpna4,inactive: -0.676
12,GGAUCAUGGGCGAAUGAUGTT against Rae1,inactive: -1.41
13,GGAAUCCUUUGUCAAAGGATT against Myh2,inactive: 0.82
14,CUCUAAGCAGCCGAACACUTT against Scx,inactive: -1.08
15,CGGCCUUUAUGAAAAGUUATT against Rraga,inactive: 0.172
16,GGAAUCUAUCUCUACUGUATT against Hp1bp3,inactive: 1.34
17,GGUCAAUAAAGAGUGUGAATT against Fam25c,inactive: -1.22
18,GGGUUGAACCAUUGUUAAATT against Cyld,inactive: 1.49
19,GGGCUGACUGCUCACUUAATT against Pnp,inactive: 0.504

# 3 records picked at random from those above:
row,Sequence,z-score
6,GGACUUCAGAGUGGACAUUTT against Sec16b,inactive: -0.19
6,GCCAUGAAACUUCAUGCUGTT against Spink4,inactive: -0.0377
14,GGAACAAAAGGUGAUCGUGTT against Col25a1,inactive: -1.74
